In PubChem BioAssay AID328 (DTP/NCI, 2004):
The list does not hold the whole screen: it is rich in T/C values a quarter to a half above the control, in often repeated tests (any T/C) and in doses without a T/C. Further doses and runs are listed elsewhere. T/C gives the treated animals as a percentage of the vehicle group. Some entries give survivors of the animals treated and no T/C: the source holds a T/C of zero for them, seemingly a mark for toxic or unscored doses. Some doses without a T/C left all or most animals alive at the check, yet need not have been tolerated: survival well below the control is almost never listed, so the zero probably covers shortened survival too. Counts of survivors are from the toxicity check (mostly the fifth day) where no day follows; animals may have died later. Schedule codes are those of the source, taken here to give the interval after Q, in days (D) or hours (H), and the number of doses after X. Some entries hold several experiments; their values stand side by side, smallest first. Where survival is the endpoint, the PubChem record calls one and a half times the control and up active, and a quarter to a half above the control has no call in these data; cut-offs in other NCI protocols can differ. Some T/C values carry the count of animals alive at the toxicity check (mostly the fifth day); where none is given, no animal had died by that day. Signs of the kind (2×) count equal records among those shown.

Test system: BDF1 mice, P388 leukemia ip, median survival T/C
Test: NCI In Vivo Anticancer Drug Screen. Data for tumor model P388 Leukemia (intraperitoneal) in B6D2F1 (BDF1) mice
Conditions: T/C endpoint: median survival time, vehicle: Klucel (hydroxypropylcellulose) (HPC), higher T/C = longer survival
In short: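 Vehicle-dosed animals serve as the reference; survival of compound-dosed, tumour-implanted mice is divided by it.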

[1] = dose: 200.0 mg/kg/injection, schedule: Q01DX001 (ip)

SMILES: O=C1C=CN(C2OC(CO)C(O)C2O)C(=O)C1 (stereo not given)
- T/C (dose: 50.0 mg/kg/injection, schedule: Q01DX001 (ip)): 87, 90, 91, 92, 94, 95, 96, 97, 99, 100 (3×), 101, 102, 104, 105, 106, 107 (4×), 108 (2×), 109, 110, 115, 116, 119, 120, 121 % of control
- T/C (dose: 50.0 mg/kg/injection, schedule: Q01DX005 (ip), evaluated on day 30): 94, 96, 98 (2×), 100, 102 (2×), 104, 105, 107, 107 [2 of 3 alive], 108, 109 (2×), 112 (2×), 113, 114 (4×), 115, 116, 119, 120 (2×), 122, 125, 128, 132, 139 % of control
- T/C (dose: 50.0 mg/kg/injection, schedule: Q01DX005 (ip), evaluated on day 35): 110 and 122 % of control
- T/C (dose: 50.0 mg/kg/injection, schedule: Q01DX009 (ip), evaluated on day 30): 96, 98, 100 (2×), 103 (2×), 105, 106 (3×), 107 (3×), 108, 109 (2×), 110, 111 (2×), 112 (3×), 114, 115, 116, 117, 119, 121, 123, 124, 127, 128, 132 % of control
- T/C (dose: 50.0 mg/kg/injection, schedule: Q01DX009 (ip), evaluated on day 35): 108 % of control
- survivor count (dose: 50.0 mg/kg/injection, schedule: Q01DX009 (ip)): 3 of 3
- T/C (dose: 50.0 mg/kg/injection, schedule: Q04DX002 (ip), evaluated on day 30): 91, 93, 94, 96 (3×), 97, 99 (2×), 101, 102, 104 (3×), 105, 106 (3×), 107 (3×), 108, 110 (2×), 111, 113, 116, 128, 267 % of control
- T/C (dose: 50.0 mg/kg/injection, schedule: Q04DX002 (ip), evaluated on day 35): 102 % of control
- survivor count (dose: 50.0 mg/kg/injection, schedule: Q04DX002 (ip)): 3 of 3
- T/C (dose: 50.0 mg/kg/injection, schedule: Q04DX003 (ip), evaluated on day 30): 90, 93, 95, 96, 98, 99 (2×), 100 (5×), 102 (2×), 103, 104 (2×), 105, 106 (4×), 107, 108, 109, 110, 112, 113, 118 % of control
- T/C (dose: 50.0 mg/kg/injection, schedule: Q04DX003 (ip), evaluated on day 35): 118 % of control
- survivor count (dose: 50.0 mg/kg/injection, schedule: Q04DX003 (ip)): 3 of 3
- T/C (dose: 100.0 mg/kg/injection, schedule: Q01DX001 (ip)): 90, 91, 95 (2×), 96, 97 (2×), 98 (2×), 99, 100 (5×), 101 (4×), 102 (3×), 104, 106 (2×), 110, 111, 112, 115, 127 % of control
- T/C (dose: 100.0 mg/kg/injection, schedule: Q01DX005 (ip), evaluated on day 30): 93, 97, 98, 100 (2×), 105, 106 (3×), 107 (2×), 109 (2×), 110, 112 (2×), 113, 114 (2×), 117, 119, 121 (2×), 122 (3×), 122 [4 of 6 alive], 123, 124, 139 % of control
- T/C (dose: 100.0 mg/kg/injection, schedule: Q01DX005 (ip), evaluated on day 35): 120 and 121 % of control
- survivor count (dose: 100.0 mg/kg/injection, schedule: Q01DX005 (ip)): 3 of 3
- T/C (dose: 100.0 mg/kg/injection, schedule: Q01DX009 (ip), evaluated on day 30): 94, 100, 101, 102, 102 [2 of 3 alive], 103, 106, 107, 108, 111 (5×), 112, 113 [5 of 6 alive], 115 (3×), 117, 118, 119 (2×), 120, 122, 123, 125, 127, 128, 131, 132, 136, 138 % of control
- T/C (dose: 100.0 mg/kg/injection, schedule: Q01DX009 (ip), evaluated on day 35): 103 % of control
- survivor count (dose: 100.0 mg/kg/injection, schedule: Q01DX009 (ip)): 3 of 3
- T/C (dose: 100.0 mg/kg/injection, schedule: Q04DX002 (ip), evaluated on day 30): 91 (2×), 94, 96, 97 [5 of 6 alive], 98, 99 (3×), 100 (2×), 102 (2×), 103 (2×), 104 (3×), 106 (3×), 107 (2×), 108 (2×), 109, 120, 128, 144 % of control
- T/C (dose: 100.0 mg/kg/injection, schedule: Q04DX002 (ip), evaluated on day 35): 105 % of control
- survivor count (dose: 100.0 mg/kg/injection, schedule: Q04DX002 (ip)): 3 of 3
- T/C (dose: 100.0 mg/kg/injection, schedule: Q04DX003 (ip), evaluated on day 30): 92, 93 (2×), 94, 95, 97, 98 (2×), 99, 100, 101, 103 (2×), 104, 105 (2×), 106 (2×), 107, 108 (5×), 111 (3×), 115, 116, 125, 126 % of control
- T/C (dose: 100.0 mg/kg/injection, schedule: Q04DX003 (ip), evaluated on day 35): 121 % of control
- T/C [1]: 92, 94, 95, 97, 99 (2×), 100 (2×), 101, 102 (3×), 103, 104 (2×), 105 (2×), 106, 107 (3×), 107 [5 of 6 alive], 108 (2×), 111, 112, 129, 139, 140 % of control
- survivor count [1]: 6 of 6
- T/C (dose: 200.0 mg/kg/injection, schedule: Q01DX005 (ip), evaluated on day 30): 98, 103 (2×), 104, 105 (3×), 107 (2×), 109, 111 (2×), 112 (2×), 116, 118 (2×), 119, 121 (2×), 122 (3×), 123, 126, 127, 129, 133, 135 % of control (2×)
- T/C (dose: 200.0 mg/kg/injection, schedule: Q01DX005 (ip), evaluated on day 35): 113 and 126 % of control [5 of 6 alive]
- survivor count (dose: 200.0 mg/kg/injection, schedule: Q01DX005 (ip)): 6 of 6
- T/C (dose: 200.0 mg/kg/injection, schedule: Q01DX009 (ip), evaluated on day 30): 89, 95, 96, 96 [2 of 3 alive], 97 (3×), 98, 99 (2×), 100, 101, 102 (2×), 103, 105, 106, 107, 108, 109, 110 (2×), 111, 112 (2×), 113, 115, 116, 117, 118, 122 (2×), 139, 140 % of control
- T/C (dose: 200.0 mg/kg/injection, schedule: Q01DX009 (ip), evaluated on day 35): 112 % of control
- survivor count (dose: 200.0 mg/kg/injection, schedule: Q01DX009 (ip)): 1 of 3
- T/C (dose: 200.0 mg/kg/injection, schedule: Q04DX002 (ip), evaluated on day 30): 91, 92, 93, 94 [5 of 6 alive], 95 (2×), 98 (2×), 99 (2×), 100, 101, 102, 106 (3×), 107 (4×), 108, 110 (2×), 111 (3×), 112, 113, 115 % of control
- T/C (dose: 200.0 mg/kg/injection, schedule: Q04DX002 (ip), evaluated on day 35): 119 % of control
- survivor count (dose: 200.0 mg/kg/injection, schedule: Q04DX002 (ip)): 2 of 3
- T/C (dose: 200.0 mg/kg/injection, schedule: Q04DX003 (ip), evaluated on day 30): 90, 92, 93, 94, 96, 97, 98, 101, 103 (3×), 104, 105, 106 (2×), 106 [5 of 6 alive], 107 (3×), 108 (2×), 109 (2×), 110, 111, 115, 117, 118, 123, 126 % of control
- T/C (dose: 200.0 mg/kg/injection, schedule: Q04DX003 (ip), evaluated on day 35): 119 % of control
- survivor count (dose: 200.0 mg/kg/injection, schedule: Q04DX003 (ip)): 3 of 3
- T/C (dose: 400.0 mg/kg/injection, schedule: Q01DX001 (ip)): 88, 91, 95 (2×), 95 [5 of 6 alive], 96, 97, 98 (2×), 99, 100 (2×), 101 (2×), 102, 103, 105, 106 (2×), 107 (2×), 108, 109, 110 (2×), 111, 112, 115, 117, 125 % of control
- T/C (dose: 400.0 mg/kg/injection, schedule: Q01DX005 (ip), evaluated on day 30): 94, 97, 108, 110, 112, 113, 114 (5×), 115 (2×), 117, 122 [5 of 6 alive], 123 (3×), 124, 128, 129 [2 of 3 alive], 130, 133, 134, 136, 142, 153 % of control
- T/C (dose: 400.0 mg/kg/injection, schedule: Q01DX005 (ip), evaluated on day 35): 96 and 108 % of control
- survivor count (dose: 400.0 mg/kg/injection, schedule: Q01DX005 (ip)): 5 of 6, 3 of 3, 6 of 6
- T/C (dose: 400.0 mg/kg/injection, schedule: Q01DX009 (ip), evaluated on day 30): 86 (2×), 87, 92 (2×), 94, 97, 99, 100 (4×), 103 (4×), 104, 105, 106 (2×), 108, 109, 110, 111, 119 (2×), 121 (2×), 122, 136 % of control
- T/C (dose: 400.0 mg/kg/injection, schedule: Q01DX009 (ip), evaluated on day 35): 94 % of control
- survivor count (dose: 400.0 mg/kg/injection, schedule: Q01DX009 (ip)): 2 of 3, 3 of 3, 6 of 6
- T/C (dose: 400.0 mg/kg/injection, schedule: Q04DX002 (ip), evaluated on day 30): 91, 92, 95 (2×), 96 (2×), 99, 101 (4×), 103 (2×), 104, 105, 107, 108, 109, 111 (2×), 112 (2×), 113, 115, 116 (2×), 119, 122 % of control [5 of 6 alive]
- T/C (dose: 400.0 mg/kg/injection, schedule: Q04DX002 (ip), evaluated on day 35): 102 % of control
- survivor count (dose: 400.0 mg/kg/injection, schedule: Q04DX002 (ip)): 3 of 3 and 6 of 6
- T/C (dose: 400.0 mg/kg/injection, schedule: Q04DX003 (ip), evaluated on day 30): 92, 93, 96 (2×), 97, 98 (2×), 99, 100 (4×), 101 (3×), 104, 105 (2×), 106, 108, 109 (3×), 110, 111, 112, 113, 115, 119, 120, 252 % of control
- T/C (dose: 400.0 mg/kg/injection, schedule: Q04DX003 (ip), evaluated on day 35): 118 % of control
